Reference: US12569566B2, “Compositions containing, methods and uses of antibody-TLR agonist conjugates” (Ambrx, Inc., priority 2019, dated 2026)
Some of these results come from one statement about several compounds together. At least one compound was matched to its structure with a doubt left.

Biological target: T1, hTLR7 (Homo sapiens, UniProt Q9NYK1)
T1 construct: host or cells: HEK-Blue hTLR7 (HEK293-derived reporter cell line)
T1 sequence (Q9NYK1 27-1049): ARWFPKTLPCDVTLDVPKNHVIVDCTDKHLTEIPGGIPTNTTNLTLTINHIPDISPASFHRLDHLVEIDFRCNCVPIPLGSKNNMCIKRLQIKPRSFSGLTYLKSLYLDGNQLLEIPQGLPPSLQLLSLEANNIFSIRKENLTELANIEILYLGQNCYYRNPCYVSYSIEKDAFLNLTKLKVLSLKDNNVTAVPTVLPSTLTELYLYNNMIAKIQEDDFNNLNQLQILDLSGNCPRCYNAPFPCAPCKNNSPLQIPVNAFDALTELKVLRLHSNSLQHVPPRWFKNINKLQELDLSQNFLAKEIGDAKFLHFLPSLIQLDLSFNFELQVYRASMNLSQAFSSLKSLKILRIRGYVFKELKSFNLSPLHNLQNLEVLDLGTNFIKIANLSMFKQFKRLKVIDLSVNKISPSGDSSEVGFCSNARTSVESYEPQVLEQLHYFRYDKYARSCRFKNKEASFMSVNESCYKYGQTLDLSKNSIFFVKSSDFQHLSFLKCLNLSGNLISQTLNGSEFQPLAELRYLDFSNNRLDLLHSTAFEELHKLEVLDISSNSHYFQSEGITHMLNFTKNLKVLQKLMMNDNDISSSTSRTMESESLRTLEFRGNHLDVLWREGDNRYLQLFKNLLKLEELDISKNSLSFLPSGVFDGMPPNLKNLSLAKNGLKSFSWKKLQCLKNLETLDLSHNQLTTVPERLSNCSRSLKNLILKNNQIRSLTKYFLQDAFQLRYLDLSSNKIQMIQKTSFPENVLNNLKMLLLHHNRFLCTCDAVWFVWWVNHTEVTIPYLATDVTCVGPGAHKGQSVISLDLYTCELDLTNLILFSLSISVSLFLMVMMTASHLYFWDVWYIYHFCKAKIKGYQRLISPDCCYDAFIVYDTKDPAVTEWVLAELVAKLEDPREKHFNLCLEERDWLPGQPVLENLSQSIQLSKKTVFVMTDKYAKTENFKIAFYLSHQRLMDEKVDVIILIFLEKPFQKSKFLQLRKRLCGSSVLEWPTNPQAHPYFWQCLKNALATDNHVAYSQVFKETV
Experiment: HEK-Blue hTLR7 reporter assay (NF-kB-induced SEAP, Quanti-Blue, OD 655 nm)
Format: cell-based
Details: text to FIG. 5B and FIG. 8; read-out: EC50 values (TLR7)
Experimental: HEK-Blue™ hTLR7 cells were incubated in HEK-Blue™ Detection medium and stimulated with increasing concentrations of TLR7 or TLR8 or TLR7/8 agonists. […] The EC50 was determined from dose-response curve using Prism Software.

Q: For `CCCCOc1nc(N)c2[nH]c(=O)n(Cc3ccc(CN4CCC(CCNC(=O)c5ccc(N)cc5)CC4)cc3)c2n1` [AXC-905, 4-amino-N-(2-(1-(4-((6-amino-2-butoxy-8-oxo-7,8-dihydro-9H-purin-9-yl)methyl)benzyl)piperidin-4-yl)ethyl)benzamide], which EC50 is on record?
A: < 10 nM
